# Measured values taken from the supplement of paper PMC12823440, “Inhibitors supercharge kinase turnover through native proteolytic circuits” (Nature, 2025).
# Chains of the proteins cited; added tags and fusions are not shown. Lines headed by an entry give the natural chain unless they say otherwise; changes in a name come on top.
# UniProt Q15208: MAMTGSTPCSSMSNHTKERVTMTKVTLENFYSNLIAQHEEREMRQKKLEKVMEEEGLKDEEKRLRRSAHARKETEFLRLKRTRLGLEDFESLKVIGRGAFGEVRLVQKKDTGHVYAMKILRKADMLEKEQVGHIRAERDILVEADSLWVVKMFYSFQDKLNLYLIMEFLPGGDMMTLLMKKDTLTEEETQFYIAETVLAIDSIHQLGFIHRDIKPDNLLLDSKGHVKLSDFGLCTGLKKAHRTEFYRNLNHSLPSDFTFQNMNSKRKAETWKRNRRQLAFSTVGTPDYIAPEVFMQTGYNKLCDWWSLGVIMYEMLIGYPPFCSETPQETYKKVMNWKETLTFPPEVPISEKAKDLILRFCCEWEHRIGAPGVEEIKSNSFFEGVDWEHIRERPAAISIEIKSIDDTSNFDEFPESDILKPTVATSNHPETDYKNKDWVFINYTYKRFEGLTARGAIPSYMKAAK
# UniProt P42680: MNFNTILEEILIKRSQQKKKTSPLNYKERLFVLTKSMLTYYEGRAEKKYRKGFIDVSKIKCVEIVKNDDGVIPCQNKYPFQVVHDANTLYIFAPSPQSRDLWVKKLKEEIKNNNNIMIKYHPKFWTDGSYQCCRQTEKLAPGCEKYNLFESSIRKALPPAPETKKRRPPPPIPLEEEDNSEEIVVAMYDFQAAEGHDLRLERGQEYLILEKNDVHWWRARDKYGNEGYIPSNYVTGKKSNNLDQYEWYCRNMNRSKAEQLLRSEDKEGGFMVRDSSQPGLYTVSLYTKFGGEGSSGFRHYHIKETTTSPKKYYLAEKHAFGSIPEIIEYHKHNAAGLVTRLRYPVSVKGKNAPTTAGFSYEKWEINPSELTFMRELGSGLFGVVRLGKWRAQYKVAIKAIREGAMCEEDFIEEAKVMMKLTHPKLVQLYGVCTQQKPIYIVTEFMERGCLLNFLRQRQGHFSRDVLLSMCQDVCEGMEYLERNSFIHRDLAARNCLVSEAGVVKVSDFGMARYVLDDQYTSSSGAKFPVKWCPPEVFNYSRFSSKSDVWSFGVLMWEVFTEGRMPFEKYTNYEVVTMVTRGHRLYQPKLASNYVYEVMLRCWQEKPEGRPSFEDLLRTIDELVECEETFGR
# UniProt Q6PHR2: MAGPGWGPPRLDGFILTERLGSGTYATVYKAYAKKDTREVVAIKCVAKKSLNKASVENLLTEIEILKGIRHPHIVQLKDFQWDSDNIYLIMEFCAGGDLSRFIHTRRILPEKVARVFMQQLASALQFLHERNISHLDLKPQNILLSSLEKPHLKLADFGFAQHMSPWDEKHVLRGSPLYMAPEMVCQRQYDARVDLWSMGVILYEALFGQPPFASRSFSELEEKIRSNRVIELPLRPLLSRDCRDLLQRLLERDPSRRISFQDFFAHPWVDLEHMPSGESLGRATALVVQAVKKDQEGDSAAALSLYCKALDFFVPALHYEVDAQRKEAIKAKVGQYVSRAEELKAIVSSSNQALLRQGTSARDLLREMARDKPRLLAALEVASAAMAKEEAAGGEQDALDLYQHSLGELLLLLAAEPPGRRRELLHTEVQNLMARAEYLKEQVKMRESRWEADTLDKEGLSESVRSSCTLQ
# UniProt P07947, whole entry, looked up: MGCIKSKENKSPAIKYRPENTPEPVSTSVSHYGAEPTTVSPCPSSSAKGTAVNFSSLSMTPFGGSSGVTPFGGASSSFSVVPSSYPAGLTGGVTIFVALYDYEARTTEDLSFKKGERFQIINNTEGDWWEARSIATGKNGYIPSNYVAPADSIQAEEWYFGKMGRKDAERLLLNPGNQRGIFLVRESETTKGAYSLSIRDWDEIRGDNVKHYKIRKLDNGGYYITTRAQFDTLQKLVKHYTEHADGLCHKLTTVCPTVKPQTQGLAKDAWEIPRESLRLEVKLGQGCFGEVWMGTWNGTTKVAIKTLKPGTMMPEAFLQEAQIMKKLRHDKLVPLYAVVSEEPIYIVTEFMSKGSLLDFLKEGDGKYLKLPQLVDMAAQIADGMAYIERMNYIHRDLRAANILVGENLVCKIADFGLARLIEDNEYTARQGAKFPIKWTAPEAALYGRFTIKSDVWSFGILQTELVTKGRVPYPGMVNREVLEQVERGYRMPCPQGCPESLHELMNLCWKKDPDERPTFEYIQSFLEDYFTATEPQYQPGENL
# UniProt P43403: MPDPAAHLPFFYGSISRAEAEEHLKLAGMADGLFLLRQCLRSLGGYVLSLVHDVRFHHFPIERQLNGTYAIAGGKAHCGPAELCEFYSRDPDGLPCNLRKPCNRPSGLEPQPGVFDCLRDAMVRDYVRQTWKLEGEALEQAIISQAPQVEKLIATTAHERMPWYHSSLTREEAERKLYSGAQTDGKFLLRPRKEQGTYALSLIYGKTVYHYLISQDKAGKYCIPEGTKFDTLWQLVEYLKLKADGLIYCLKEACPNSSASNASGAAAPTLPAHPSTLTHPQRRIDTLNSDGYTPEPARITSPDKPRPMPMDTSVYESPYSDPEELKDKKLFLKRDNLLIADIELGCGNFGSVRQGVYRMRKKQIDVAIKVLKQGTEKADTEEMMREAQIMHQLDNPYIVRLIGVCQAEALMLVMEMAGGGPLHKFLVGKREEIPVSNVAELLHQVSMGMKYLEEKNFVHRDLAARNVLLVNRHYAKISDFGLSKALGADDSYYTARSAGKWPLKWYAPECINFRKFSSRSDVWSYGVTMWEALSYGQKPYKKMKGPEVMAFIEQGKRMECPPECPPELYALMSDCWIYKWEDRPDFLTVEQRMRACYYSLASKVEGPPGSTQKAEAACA
# UniProt P31749: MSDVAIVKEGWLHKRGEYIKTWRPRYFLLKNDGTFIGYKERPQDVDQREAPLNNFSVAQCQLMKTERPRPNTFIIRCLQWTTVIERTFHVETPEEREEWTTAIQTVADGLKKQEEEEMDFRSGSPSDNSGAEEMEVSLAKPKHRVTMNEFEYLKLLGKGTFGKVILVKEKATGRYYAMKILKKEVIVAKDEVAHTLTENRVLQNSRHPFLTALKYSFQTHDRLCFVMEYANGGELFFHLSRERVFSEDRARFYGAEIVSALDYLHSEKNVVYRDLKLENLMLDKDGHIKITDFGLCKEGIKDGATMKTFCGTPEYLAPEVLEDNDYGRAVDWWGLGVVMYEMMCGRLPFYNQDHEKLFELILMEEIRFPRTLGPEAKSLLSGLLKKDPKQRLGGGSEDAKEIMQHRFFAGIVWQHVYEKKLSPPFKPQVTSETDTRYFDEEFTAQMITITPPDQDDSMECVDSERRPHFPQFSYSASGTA
# UniProt P10398: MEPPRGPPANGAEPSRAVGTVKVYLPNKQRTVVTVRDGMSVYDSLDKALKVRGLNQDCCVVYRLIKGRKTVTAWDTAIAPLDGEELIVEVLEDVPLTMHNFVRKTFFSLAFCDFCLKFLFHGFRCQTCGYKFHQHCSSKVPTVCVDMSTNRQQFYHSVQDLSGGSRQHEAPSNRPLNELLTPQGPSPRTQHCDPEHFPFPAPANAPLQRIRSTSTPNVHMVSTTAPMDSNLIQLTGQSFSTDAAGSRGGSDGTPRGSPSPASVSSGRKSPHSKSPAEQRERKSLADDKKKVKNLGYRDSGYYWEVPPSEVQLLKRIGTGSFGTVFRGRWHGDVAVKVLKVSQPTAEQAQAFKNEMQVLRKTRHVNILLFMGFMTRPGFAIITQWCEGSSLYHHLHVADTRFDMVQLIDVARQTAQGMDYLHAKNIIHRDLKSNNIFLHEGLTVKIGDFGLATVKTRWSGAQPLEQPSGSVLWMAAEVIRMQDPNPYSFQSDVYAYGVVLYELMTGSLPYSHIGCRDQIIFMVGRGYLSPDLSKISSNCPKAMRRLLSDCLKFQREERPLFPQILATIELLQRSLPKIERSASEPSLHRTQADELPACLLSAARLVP
# UniProt O14965: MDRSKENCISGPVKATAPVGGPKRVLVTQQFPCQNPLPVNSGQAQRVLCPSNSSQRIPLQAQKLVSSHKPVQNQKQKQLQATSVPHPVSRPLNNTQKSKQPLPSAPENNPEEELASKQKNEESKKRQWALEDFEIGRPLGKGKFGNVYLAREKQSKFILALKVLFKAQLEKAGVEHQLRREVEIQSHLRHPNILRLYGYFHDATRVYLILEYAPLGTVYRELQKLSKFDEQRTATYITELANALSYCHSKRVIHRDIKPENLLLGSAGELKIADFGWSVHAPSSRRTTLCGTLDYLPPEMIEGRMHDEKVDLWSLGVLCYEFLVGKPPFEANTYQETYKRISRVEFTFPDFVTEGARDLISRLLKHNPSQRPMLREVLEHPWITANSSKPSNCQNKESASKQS
# UniProt Q96GD4, whole entry: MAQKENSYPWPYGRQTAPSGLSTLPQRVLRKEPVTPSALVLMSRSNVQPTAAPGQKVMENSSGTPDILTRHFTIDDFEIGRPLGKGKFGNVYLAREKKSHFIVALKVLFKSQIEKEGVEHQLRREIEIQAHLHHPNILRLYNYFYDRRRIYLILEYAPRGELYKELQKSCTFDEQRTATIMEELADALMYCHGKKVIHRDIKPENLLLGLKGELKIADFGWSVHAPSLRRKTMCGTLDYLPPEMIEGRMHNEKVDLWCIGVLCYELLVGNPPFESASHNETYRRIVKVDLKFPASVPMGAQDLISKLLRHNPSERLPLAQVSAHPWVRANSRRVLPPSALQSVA
# UniProt P51451: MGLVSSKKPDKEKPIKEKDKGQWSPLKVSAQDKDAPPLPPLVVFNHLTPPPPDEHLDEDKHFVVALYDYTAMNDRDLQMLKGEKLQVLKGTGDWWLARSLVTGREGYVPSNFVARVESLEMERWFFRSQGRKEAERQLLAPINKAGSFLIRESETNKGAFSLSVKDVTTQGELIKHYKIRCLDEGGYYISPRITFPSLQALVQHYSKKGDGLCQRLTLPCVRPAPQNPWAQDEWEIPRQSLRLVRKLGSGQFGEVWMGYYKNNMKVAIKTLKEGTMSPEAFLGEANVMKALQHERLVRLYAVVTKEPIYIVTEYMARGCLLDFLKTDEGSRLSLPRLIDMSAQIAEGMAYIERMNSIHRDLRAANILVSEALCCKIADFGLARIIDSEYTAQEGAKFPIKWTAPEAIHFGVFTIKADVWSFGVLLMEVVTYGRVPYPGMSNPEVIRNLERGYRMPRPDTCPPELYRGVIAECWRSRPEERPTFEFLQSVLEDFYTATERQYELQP
# UniProt P15056, whole entry, looked up: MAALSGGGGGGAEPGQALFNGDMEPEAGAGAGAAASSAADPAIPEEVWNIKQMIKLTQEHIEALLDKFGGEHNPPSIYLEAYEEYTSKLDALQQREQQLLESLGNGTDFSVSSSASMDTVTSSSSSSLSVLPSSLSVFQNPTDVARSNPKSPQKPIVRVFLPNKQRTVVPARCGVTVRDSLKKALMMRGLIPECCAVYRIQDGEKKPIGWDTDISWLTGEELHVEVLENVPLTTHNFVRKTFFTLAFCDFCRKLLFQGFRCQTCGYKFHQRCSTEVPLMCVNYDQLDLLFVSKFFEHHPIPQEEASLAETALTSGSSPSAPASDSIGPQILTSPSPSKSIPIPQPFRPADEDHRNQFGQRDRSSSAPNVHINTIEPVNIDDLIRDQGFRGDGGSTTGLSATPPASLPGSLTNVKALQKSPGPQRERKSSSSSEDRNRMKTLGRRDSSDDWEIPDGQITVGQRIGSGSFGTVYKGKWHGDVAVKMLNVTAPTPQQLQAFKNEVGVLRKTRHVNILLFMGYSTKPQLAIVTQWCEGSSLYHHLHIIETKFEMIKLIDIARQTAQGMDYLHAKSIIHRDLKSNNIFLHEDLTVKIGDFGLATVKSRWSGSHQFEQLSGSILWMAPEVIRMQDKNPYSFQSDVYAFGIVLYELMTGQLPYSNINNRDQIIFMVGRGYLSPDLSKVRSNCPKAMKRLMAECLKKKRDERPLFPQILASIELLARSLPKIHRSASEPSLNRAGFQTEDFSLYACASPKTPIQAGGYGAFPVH
# UniProt Q06187: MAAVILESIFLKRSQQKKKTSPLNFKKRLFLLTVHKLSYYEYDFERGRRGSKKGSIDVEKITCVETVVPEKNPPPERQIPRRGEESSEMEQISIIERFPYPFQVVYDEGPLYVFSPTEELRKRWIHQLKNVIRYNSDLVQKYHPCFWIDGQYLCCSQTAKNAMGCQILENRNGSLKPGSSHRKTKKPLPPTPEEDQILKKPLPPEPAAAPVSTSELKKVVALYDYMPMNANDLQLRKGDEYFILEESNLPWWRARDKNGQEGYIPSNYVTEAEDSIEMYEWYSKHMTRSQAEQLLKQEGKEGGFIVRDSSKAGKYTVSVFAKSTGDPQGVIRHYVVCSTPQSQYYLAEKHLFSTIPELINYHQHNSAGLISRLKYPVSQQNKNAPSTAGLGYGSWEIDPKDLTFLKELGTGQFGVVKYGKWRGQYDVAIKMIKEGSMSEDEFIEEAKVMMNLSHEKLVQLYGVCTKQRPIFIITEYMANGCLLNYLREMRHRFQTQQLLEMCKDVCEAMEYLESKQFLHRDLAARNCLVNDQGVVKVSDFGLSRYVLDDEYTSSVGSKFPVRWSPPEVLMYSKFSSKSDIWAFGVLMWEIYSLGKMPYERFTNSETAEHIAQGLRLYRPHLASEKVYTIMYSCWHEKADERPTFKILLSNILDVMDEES
# Counter-ions that a name gives are not always drawn. Some of the results follow. The calls rarely recur for the same compound in another form.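 Kinases were expressed as nanoluciferase fusions in K562 cells and luminescence was read every 4 h between 2 and 18 h as percent of control, DMSO set to 100% and a positive control to 0%. A time point counts as decreased when the signal drops significantly (2 sigma). The hit call is the authors' own, does not follow from the count of time points alone, and its rule is not shown.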
# How the values were obtained:
# Conditions in all cases: K562; 2-18 h
# STK38 = STK38 (UniProt Q15208); assay: kinase-Nluc reporter destabilization hit call (1 = scored as downregulated) (binary); higher = compound decreases kinase abundance
# SYK = SYK (UniProt P43405); assay: as above
# TEC = TEC (UniProt P42680); assay: as above
# TYK2 = TYK2 (UniProt P29597); assay: as above
# ULK3 = ULK3 (UniProt Q6PHR2); assay: as above
# YES1 = YES1 (UniProt P07947); assay: as above
# ZAK = ZAK (UniProt Q9NYL2); assay: as above
# ZAP70 = ZAP70 (UniProt P43403); assay: as above
# ABL1 = ABL1 (UniProt P00519); assay: number of time points (of 5) at which kinase-Nluc abundance scored as decreased, DMSO-normalised (count); higher = more persistent destabilization
# AKT1 = AKT1 (UniProt P31749); assay: as above
# ALK = ALK (UniProt Q9UM73); assay: as above
# ARAF = ARAF (UniProt P10398); assay: as above
# AURKA = AURKA (UniProt O14965); assay: as above
# AURKB = AURKB (UniProt Q96GD4); assay: as above
# AURKC = AURKC (UniProt Q9UQB9); assay: as above
# BLK = BLK (UniProt P51451); assay: as above
# BMX = BMX (UniProt P51813); assay: as above
# BRAF = BRAF (UniProt P15056); assay: as above
# BRAF_V600E = assay: as above
# BTK = BTK (UniProt Q06187); assay: as above
SMILES,kinase-Nluc reporter destabilization hit call (STK38),kinase-Nluc reporter destabilization hit call (SYK),kinase-Nluc reporter destabilization hit call (TEC),kinase-Nluc reporter destabilization hit call (TYK2),kinase-Nluc reporter destabilization hit call (ULK3),kinase-Nluc reporter destabilization hit call (YES1),kinase-Nluc reporter destabilization hit call (ZAK),kinase-Nluc reporter destabilization hit call (ZAP70),number of time points (ABL1),number of time points (AKT1),number of time points (ALK),number of time points (ARAF),number of time points (AURKA),number of time points (AURKB),number of time points (AURKC),number of time points (BLK),number of time points (BMX),number of time points (BRAF),number of time points (BRAF_V600E),number of time points (BTK)
COc1cc2nccc(Oc3ccc(NC(=O)Nc4ccc(F)cc4F)c(F)c3)c2cc1OC (10 µM),inactive: 0,inactive: 0,inactive: 0,inactive: 0,inactive: 0,inactive: 0,inactive: 0,inactive: 0,0,0,0,0,0,0,0,0,1,4,0,0
O=c1cc(N2CCOCC2)oc2c1ccc1ccccc12 (2 µM),inactive: 0,inactive: 0,inactive: 0,inactive: 0,inactive: 0,inactive: 0,inactive: 0,inactive: 0,0,0,0,0,0,0,0,0,0,0,0,0
C=CC(=O)Nc1cc(C(=O)NC)cc(-c2n[nH]c3ccccc23)c1 (10 µM),inactive: 0,inactive: 0,inactive: 0,inactive: 0,inactive: 0,inactive: 0,inactive: 0,inactive: 0,0,0,0,0,0,0,0,0,0,0,4,0
O=c1ccc2cc(O)c(O)cc2o1 [Esculetin] (10 µM),inactive: 0,inactive: 0,inactive: 0,inactive: 0,inactive: 0,inactive: 0,inactive: 0,inactive: 0,0,0,0,0,0,0,0,0,0,0,0,0
O=C(Nc1ncc(SCCN2CCCC2)s1)[C@]1(c2ccc(S(=O)(=O)C3CC3)cc2)C[C@H]1C1CCCCC1 [Globalagliatin] (2.5 µM),inactive: 0,inactive: 0,inactive: 0,inactive: 0,inactive: 0,inactive: 0,inactive: 0,inactive: 0,0,0,0,1,0,0,0,0,0,0,0,0
CC(C)n1cnnc1-c1cccc(NC(=O)c2cc3ccc(F)cc3[nH]2)n1 (2.5 µM),inactive: 0,inactive: 0,inactive: 0,inactive: 0,inactive: 0,inactive: 0,inactive: 0,inactive: 0,4,0,3,0,3,2,0,3,3,0,4,0
O=C(N=c1sccn1Cc1ccccc1)c1c[nH]c2ncccc12 (10 µM),inactive: 0,inactive: 0,inactive: 0,inactive: 0,inactive: 0,inactive: 0,inactive: 0,inactive: 0,0,0,0,0,0,0,0,0,0,0,0,0
Cn1c(=O)c(Oc2ccc(F)cc2F)cc2cnc(NC(CCO)CCO)nc21 [Pamapimod] (10 µM),inactive: 0,inactive: 0,inactive: 0,inactive: 0,inactive: 0,inactive: 0,inactive: 0,inactive: 0,0,0,0,0,0,0,0,0,0,0,0,0
Cc1ccc(-n2c(-c3ccc(O)cc3O)n[nH]c2=O)cc1 (10 µM),inactive: 0,inactive: 0,inactive: 0,active: 1,active: 1,inactive: 0,inactive: 0,inactive: 0,0,0,1,0,0,0,0,4,2,0,4,0
Cc1nc(Nc2ncc(C(=O)Nc3c(C)cccc3Cl)s2)cc(N2CCN(C(=O)CCCCCCC(=O)N[C@H](C(=O)N3C[C@H](O)C[C@H]3C(=O)NCc3ccc(-c4scnc4C)cc3)C(C)(C)C)CC2)n1 (2.5 µM),inactive: 0,inactive: 0,inactive: 0,inactive: 0,inactive: 0,inactive: 0,inactive: 0,inactive: 0,3,0,2,1,2,2,1,4,5,2,3,4
CC(=O)NCC(=O)N[C@@H](C)C(=O)N[C@@H](CCC(N)=O)C(=O)N[C@@H](Cc1ccccc1)C(=O)N[C@@H](CO)C(=O)N[C@@H](CCCCN)C(=O)N[C@H](C(=O)N[C@@H](C)C(=O)N[C@@H](C)C(=O)N[C@@H](CCCCN)C(=O)O)[C@@H](C)O (10 µM),inactive: 0,inactive: 0,inactive: 0,inactive: 0,inactive: 0,inactive: 0,inactive: 0,inactive: 0,0,0,0,0,0,0,0,0,0,0,0,0
Nc1nc2c(ncn2COCCO)c(=O)[nH]1 [Acyclovir] (10 µM),inactive: 0,inactive: 0,inactive: 0,inactive: 0,inactive: 0,inactive: 0,inactive: 0,inactive: 0,0,0,0,0,0,0,0,0,0,0,0,0
COc1ccc(COc2cc3oc(=O)c4cc(C(C)O)ccc4c3cc2OC)cc1 (stereo not given) [Palomid 529] (2.5 µM),inactive: 0,inactive: 0,inactive: 0,inactive: 0,inactive: 0,inactive: 0,inactive: 0,inactive: 0,0,0,0,0,0,0,0,0,0,0,0,0
C[C@]1(O)C[C@@](N)(c2ccc(-c3nc4n(c3-c3ccccc3)COc3ccncc3-4)cc2)C1 [TAS-117 (hydrochloride)] (10 µM),inactive: 0,inactive: 0,inactive: 0,inactive: 0,inactive: 0,inactive: 0,inactive: 0,inactive: 0,0,0,0,0,0,0,0,0,0,0,0,0
"CC(=O)c1cc(O)ccc1O [2,5-Dihydroxyacetophenone] (10 µM)",inactive: 0,inactive: 0,inactive: 0,inactive: 0,inactive: 0,inactive: 0,inactive: 0,inactive: 0,0,0,0,0,0,0,0,0,0,0,0,0
Cn1cc(-c2ccc3ncc(Cc4ccc5ncccc5c4)n3n2)cn1 (10 µM),inactive: 0,inactive: 0,inactive: 0,inactive: 0,inactive: 0,inactive: 0,inactive: 0,inactive: 0,0,0,0,0,0,0,0,0,0,0,0,0

SMILES,kinase-Nluc reporter destabilization hit call (STK38),kinase-Nluc reporter destabilization hit call (SYK),kinase-Nluc reporter destabilization hit call (TEC),kinase-Nluc reporter destabilization hit call (TYK2),kinase-Nluc reporter destabilization hit call (ULK3),kinase-Nluc reporter destabilization hit call (YES1),kinase-Nluc reporter destabilization hit call (ZAK),kinase-Nluc reporter destabilization hit call (ZAP70),number of time points (ABL1),number of time points (AKT1),number of time points (ALK),number of time points (ARAF),number of time points (AURKA),number of time points (AURKB),number of time points (AURKC),number of time points (BLK),number of time points (BMX),number of time points (BRAF),number of time points (BRAF_V600E),number of time points (BTK)
O=C1NCCSc2c1sc1ccc(O)cc21 (2.5 µM),inactive: 0,inactive: 0,inactive: 0,inactive: 0,inactive: 0,inactive: 0,inactive: 0,inactive: 0,0,0,0,0,0,0,0,1,0,0,1,0
NC(=O)c1ccc2nc(-c3ccc(C4(N)CCC4)cc3)c(-c3ccccc3)n2n1 (10 µM),inactive: 0,inactive: 0,inactive: 0,inactive: 0,inactive: 0,inactive: 0,inactive: 0,inactive: 0,0,0,0,0,0,0,0,0,0,0,0,0
CC(=O)Nc1nc(C)c(-c2ccc(Cl)c(S(=O)(=O)NCCO)c2)s1 (10 µM),inactive: 0,inactive: 0,inactive: 0,inactive: 0,inactive: 0,inactive: 0,inactive: 0,inactive: 0,0,0,0,0,0,0,0,2,1,0,1,0
C=CC(=O)Nc1cccc(Nc2nc(Nc3ccc(Oc4ccnc(C(=O)NC)c4)cc3)ncc2F)c1 (2.5 µM),inactive: 0,inactive: 0,inactive: 0,inactive: 0,inactive: 0,inactive: 0,inactive: 0,inactive: 0,0,0,0,0,0,0,0,0,0,0,0,0
COc1ncc2cc(C(=O)Nc3cc(C(=O)NCc4cccc(Cl)c4)ccc3Cl)c(=O)[nH]c2n1 (2.5 µM),inactive: 0,inactive: 0,inactive: 0,inactive: 0,inactive: 0,inactive: 0,inactive: 0,inactive: 0,0,0,0,0,0,0,0,0,0,0,0,0
N#C/C(=C\c1ccc[nH]1)c1ccc(Cl)c(Cl)c1 (2.5 µM),inactive: 0,inactive: 0,inactive: 0,inactive: 0,inactive: 0,inactive: 0,inactive: 0,inactive: 0,0,0,0,0,0,0,0,0,0,0,0,0
COc1c(OCCCN2CCOCC2)ccc2c3n(c(=NC(=O)c4cnc(N)nc4)nc12)CCN3 [Copanlisib (dihydrochloride)] (10 µM),inactive: 0,inactive: 0,inactive: 0,inactive: 0,inactive: 0,inactive: 0,inactive: 0,inactive: 0,5,0,2,0,4,4,0,3,3,2,4,0
COC(=O)[C@]1(C)CC[C@]2(C(=O)O[C@@H]3O[C@H](CO)[C@@H](O)[C@H](O)[C@H]3O)CC[C@]3(C)C(=CC[C@@H]4[C@@]5(C)C[C@H](O)[C@H](O[C@@H]6OC[C@@H](O[C@@H]7O[C@H](CO)[C@@H](O)[C@H](O)[C@H]7O)[C@H](O)[C@H]6O)[C@@](C)(CO)C5CC[C@]43C)[C@H]2C1 (stereo not given in full) [Esculentoside H] (10 µM),inactive: 0,inactive: 0,inactive: 0,inactive: 0,inactive: 0,inactive: 0,inactive: 0,inactive: 0,0,0,0,0,0,0,0,0,0,0,0,0
NC(=O)c1cccc2c(N[C@H](CN3CCC3)c3ccc(Cl)c(C(F)(F)F)c3)ncnc12 (10 µM),inactive: 0,inactive: 0,inactive: 0,inactive: 0,inactive: 0,inactive: 0,inactive: 0,inactive: 0,0,0,0,0,0,0,0,0,0,0,0,0
CNC(=O)Nc1cc(Oc2cncc(C)c2)c(-c2ccc(OCC(C)(C)O)nc2)cn1 (2.5 µM),inactive: 0,inactive: 0,inactive: 0,inactive: 0,inactive: 0,inactive: 0,inactive: 0,inactive: 0,5,0,0,0,0,0,0,0,0,0,0,0
Cc1c(Br)c(Br)c2c3c1nc(N1CCNCC1)n3CCC2 [SEL120-34A (monohydrochloride)] (2.5 µM),inactive: 0,inactive: 0,inactive: 0,inactive: 0,inactive: 0,inactive: 0,inactive: 0,inactive: 0,0,0,0,0,0,0,0,0,0,0,0,0
COC(=O)c1cc2c(OC(C)C)cc(OC(C)C)cc2[nH]1 (2.5 µM),inactive: 0,inactive: 0,inactive: 0,inactive: 0,inactive: 0,inactive: 0,inactive: 0,inactive: 0,0,0,0,0,0,0,0,0,0,0,0,0
C=C[C@H]1[C@H](O[C@@H]2O[C@H](CO)[C@@H](O)[C@H](O)[C@H]2O)OC=C(C(=O)OC)[C@H]1CCOC(=O)c1cc(O)c(O)c(O)c1 [Cornuside] (10 µM),inactive: 0,inactive: 0,inactive: 0,inactive: 0,inactive: 0,inactive: 0,inactive: 0,inactive: 0,0,0,0,0,0,0,0,0,0,0,0,0
CCC(=O)N1CC[C@H](Nc2ncnc3c2CN(c2cnc(OC)c(C(F)(F)F)c2)CC3)C1 [Leniolisib] (10 µM),inactive: 0,inactive: 0,inactive: 0,inactive: 0,inactive: 0,inactive: 0,inactive: 0,inactive: 0,0,0,0,0,0,0,0,0,0,0,0,0
O=C(NCc1cccc(O)c1)c1cc2cc(F)ccc2[nH]1 (10 µM),inactive: 0,inactive: 0,inactive: 0,inactive: 0,inactive: 0,inactive: 0,inactive: 0,inactive: 0,0,0,0,0,0,0,0,0,0,0,0,0
COc1cccc(Nc2ncnn3ccc(CN4CC[C@@H](N)[C@H](O)C4)c23)c1 (2.5 µM),inactive: 0,inactive: 0,inactive: 0,inactive: 0,inactive: 0,inactive: 0,inactive: 0,inactive: 0,3,0,1,0,0,0,0,1,1,1,2,0

# As entered above.
# `O=C(N=c1sccn1Cc1ccccc1)c1c[nH]c2ncccc12` (10 µM) | number of time points (BTK): 0
# `Cn1cc(-c2ccc3ncc(Cc4ccc5ncccc5c4)n3n2)cn1` (10 µM) | kinase-Nluc reporter destabilization hit call (ULK3): inactive: 0
